# Reference: PubChem BioAssay AID1487 (National Center for Advancing Translational Sciences (NCATS), 2009)
# The list shows a part of the results. The main result of the screen is listed elsewhere. These columns were measured beside it and carry no call. Compounds called inactive in the main read-out are mostly missing here. Potencies come from curve fits of mixed quality, noted in brackets.
# Assay: qHTS Assay for Modulators of Lamin A Splicing
# Conditions: HeLa LMNA splicing GFP/RFP minigene ratio, 48 h
# How it was run: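 S3 HeLa cells stably expressing lamin A-EGFP splicing minigene plus DsRed2, 600 cells/well, 48 h compound exposure at 37C. Laser-scanning cytometry; analysed as GFP (500-530 nm)/RFP (575-640 nm) total intensity ratio; 0.5% DMSO vehicle.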
# [1] = measured here: GFP splicing reporter channel
# [2] = measured here: RFP viability control channel
SMILES,AC50 [1],AC50 [2]
O=C(CN1C(=O)NC2(CCCCCC2)C1=O)N1CCN(S(=O)(=O)c2ccc(Cl)cc2)CC1,"0.00501 µM [falling, full curve]","0.00891 µM [falling, full curve]"
Cc1cc[n+](C(C)C(=O)c2ccc(-c3ccccc3)cc2)cc1 (stereo unspecified),–,"11.2 µM [rising, partial curve]"
CCNc1ccc(C(=O)OCC)cc1NC(=O)c1cccc(S(=O)(=O)N(C)c2ccccc2)c1,–,"3.55 µM [rising, full curve, poor fit]"
CCN(CC)CCOC(=O)[C@@H](c1ccccc1)C1CCCCC1,"0.282 µM [falling, full curve]","0.251 µM [falling, full curve]"
CC(C)C(NC(=O)OC(C)(C)C)C(=O)N1CCCC1C(=O)NC(Cc1ccccc1)C(N)=O (stereo unspecified),"12.6 µM [rising, single point]",–
COc1ccc(OC)c(/C=C/C(=O)N(C)CC(=O)Nc2ccc(C)cc2)c1,"10 µM [rising, partial curve]",–
CCn1cc(C(=O)NCc2ccc3c(c2)OCO3)c2cc(OC)c(OC)cc2c1=O,"0.891 µM [falling, full curve]","0.891 µM [falling, full curve]"
COc1ccc(-c2cnnn2-c2ccc(NC(=O)/C=C/c3ccc(OC)c(OC)c3)cc2)cc1,"17.8 µM [falling, single point]",–
CCOc1ccccc1NC(=O)C(OC(=O)c1ccc(O)cc1)c1ccccc1 (stereo unspecified),–,"12.6 µM [rising, partial curve]"
O=C(NCc1ccco1)C1CCN(S(=O)(=O)N2CCC3(CC2)OCCO3)CC1,–,"1.26 µM [falling, single point]"
COc1cccc(CSc2nc3n(n2)C(CC(C)C)C(C(=O)Nc2ccccc2OC)=C(C)N3)c1 (stereo unspecified),"15.8 µM [falling, single point]","15.8 µM [falling, single point]"
COCC(=O)Nc1c(C(=O)Nc2ccc3c(c2)OCCO3)oc2ccccc12,"11.2 µM [falling, partial curve, poor fit]","35.5 µM [falling, partial curve, poor fit]"
NC(=S)N/N=C/c1ccc2ccccc2c1,–,"5.01 µM [falling, single point]"
CCOC(=O)C1CCN(C(=O)COc2cc(C)c(Br)cc2C)CC1,"15.8 µM [rising, single point]",–
O=C(CN1CCOCC1)Nc1ncc(Cc2cccc3ccccc23)s1,–,"12.6 µM [rising, partial curve]"
Cc1ccc(/C(=C\CN2CCCC2)c2ccccn2)cc1,–,"1.41 µM [rising, full curve]"
Cc1ccc(/C=N/NC(=O)CSc2nc3ccccc3n2Cc2ccc(Cl)cc2)o1,"10 µM [rising, partial curve, poor fit]","12.6 µM [rising, single point]"
Cc1cc(C)cc(NS(=O)(=O)c2ccc3[nH]cc(C(=O)N4CCc5ccccc54)c(=O)c3c2)c1,–,"10 µM [rising, partial curve]"
COc1ccc(C(=O)N2CCN(c3ccc(C)cc3C)CC2)cc1OC,"35.5 µM [rising, single point]","35.5 µM [rising, single point]"
O=C(CC(SCCO)c1ccc(F)cc1)c1ccco1 (stereo unspecified),"14.1 µM [falling, single point]","17.8 µM [falling, single point]"
O=C(NCc1ccco1)C1(c2ccccc2)CCCC1,–,"35.5 µM [rising, single point]"
O=C1CC(c2c(F)cccc2Cl)C(n2cncn2)C(O)=C1C1NCCc2ccccc21 (stereo unspecified),"1.58 µM [rising, full curve]",–
COc1ccccc1-c1nn2c(C3COc4ccccc4O3)nnc2s1 (stereo unspecified),"7.94 µM [rising, partial curve, poor fit]",–
CCN(Cc1nc(-c2ccc(OC)cc2)oc1C)S(=O)(=O)c1ccc(C)cc1,"3.16 µM [rising, partial curve, poor fit]","3.55 µM [rising, full curve, poor fit]"
Cc1ccc(NC(=O)CN2CCSc3ccc(S(=O)(=O)N4CCCC4)cc32)cc1,"35.5 µM [rising, single point]","14.1 µM [rising, single point]"
CC(C)(C)c1ccc(C(=O)Nc2nnc(Cc3c[nH]c4ccccc34)s2)cc1,"5.62 µM [rising, single point]","5.62 µM [rising, single point]"
COc1cc(-c2cc(OC)c3c(C)oc(C)c3c(=O)c2)ccc1O,"12.6 µM [rising, single point]","14.1 µM [rising, single point]"

SMILES,AC50 [1],AC50 [2]
COc1ccc(NC(=O)C23CC4CC(C2)CC(c2ccc(C)cc2)(C4)C3)cc1,–,"20 µM [rising, single point]"
Cc1cc(C)nc(SCc2ccc(C(=O)N/N=C/c3cccc(O)c3O)cc2)n1,–,"28.2 µM [rising, single point]"
COCCn1c(SCC(=O)Nc2ccc(Cl)cn2)nnc1-c1ccncc1,"7.08 µM [falling, partial curve, poor fit]","0.398 µM [falling, partial curve, poor fit]"
CC1CCN(c2c(NCc3ccc(C(=O)N4c5ccccc5CC4C)cc3)c(=O)c2=O)CC1 (stereo unspecified),–,"35.5 µM [rising, single point]"
Cc1ccc(-c2ccc(C(=O)Nc3ccccc3)o2)c2ccccc12,"15.8 µM [rising, single point]","17.8 µM [rising, single point]"
CCOc1ccc(NC2OC(C)C(O)C(O)C2O)c([N+](=O)[O-])c1 (stereo unspecified),–,"0.794 µM [falling, full curve, poor fit]"
COc1ccc(/C=C2\C(=O)N(Cc3ccc(F)cc3)CC(=O)N2Cc2ccccc2)cc1,–,"35.5 µM [rising, single point]"
O=C(COC(=O)CCC(=O)c1cccs1)NCc1ccccc1,"0.0891 µM [falling, full curve, poor fit]",–
O=C(NCc1cccnc1)/C(=C/c1ccc(-c2cccc(Cl)c2)o1)S(=O)(=O)c1ccccc1,"3.98 µM [falling, full curve]","3.98 µM [falling, full curve]"
Cc1cccc(OCc2nnc(SCC(=O)N3c4ccccc4CC3C)n2C)c1C (stereo unspecified),–,"12.6 µM [rising, partial curve, poor fit]"
CCN(CC)C(=O)CSc1nnc(COc2ccc(OC)cc2)n1N,"0.891 µM [falling, full curve, poor fit]","0.891 µM [falling, full curve, poor fit]"
CCOC(=O)CN1C(=O)N[C@@H](c2ccc(Br)cc2)C(C(C)=O)=C1C,–,"11.2 µM [rising, single point]"
C=CCn1c(SCc2c(C)noc2C)nc2cc(C(=O)O)ccc2c1=O,–,"31.6 µM [rising, single point]"
COC(=O)c1ccccc1NC(=O)N1c2ccccc2CC1C (stereo unspecified),"1.58 µM [rising, partial curve, poor fit]","12.6 µM [rising, partial curve]"
Cc1ccc(NC(=O)c2cc(C)n(-c3cccc(C)c3)c2C)cc1,"10 µM [rising, partial curve]","12.6 µM [rising, partial curve]"
Cc1c(C(=O)Nc2ccccc2F)sc2ncnc(N(C)C3CCCCC3)c12,"12.6 µM [falling, partial curve]","4.47 µM [falling, partial curve, poor fit]"
CCn1c(SCC(=O)c2[nH]c(C)c(C(C)=O)c2C)nnc1-c1ccccc1,"3.55 µM [rising, single point]","7.08 µM [rising, partial curve]"
Cc1nn(-c2ccccc2)nc1CNC(=O)C(C)Cc1ccccc1 (stereo unspecified),–,"0.891 µM [rising, full curve]"
O=c1cnc2cnc(Nc3ccccc3)nc2n1CCc1ccccc1,"35.5 µM [falling, single point]","35.5 µM [falling, single point]"
CCCC12CN3CC(CCC)(CN(C1)C3c1ccccc1)C2=O (stereo unspecified),"0.0224 µM [falling, full curve, poor fit]",–
CCOC(=O)c1cc(S(=O)(=O)N2CCN(c3ccc(C(C)=O)cc3)CC2)[nH]n1,–,"22.4 µM [rising, single point]"
COc1ccc(C2(CNC(=O)c3cccc([N+](=O)[O-])c3)CCCCC2)cc1OC,–,"35.5 µM [rising, single point]"
Cn1c(-c2ccccc2)cnc1SCC(N)=O,–,"2.82 µM [rising, partial curve]"
COc1ccc(CN(C(=O)c2nsc(Cl)c2Cl)C(C(=O)NC2CCCC2)c2ccc(OC)cc2)cc1 (stereo unspecified),–,"12.6 µM [rising, partial curve]"
COc1ccc(N2CC(NC(=O)c3ccco3)CC2=O)cc1 (stereo unspecified),"35.5 µM [falling, partial curve, poor fit]","0.794 µM [falling, full curve, poor fit]"
O=c1onc2n1-c1cc(Br)ccc1OC2,–,"0.000891 µM [falling, full curve, poor fit]"
COc1ccccc1NC(=O)C1CCN(C(=O)c2sc3nc[nH]c(=O)c3c2C)CC1,"6.31 µM [rising, partial curve]",–

# Single records, as listed above:
# Cc1ccc(-c2ccc(C(=O)Nc3ccccc3)o2)c2ccccc12 in the list: AC50 [1]: 15.8 µM [rising, single point]; AC50 [2]: 17.8 µM [rising, single point]
# Cc1cc(C)nc(SCc2ccc(C(=O)N/N=C/c3cccc(O)c3O)cc2)n1 in the list: AC50 [2]: 28.2 µM [rising, single point]
